{"source": "paper PMC6608615", "molecules": {"B1": {"name": "Cox2 subunit of N. crassa cytochrome c oxidase (complex IV) (protein, UniProt P00411 1-250)", "chain": "MGLLFNNLIMNFDAPSPWGIYFQDSATPQMEGLVELHDNIMYYLVVILFGVGWILLSIIRNYISTKSPISHKYLNHGTLIELIWTITPAVILILIAFPSFKLLYLMDEVSDPSMSVLAEGHQWYWSYQYPDFLDSNDEFIEFDSYIVPESDLEEGALRMLEVDNRVILPELTHVRFIITAGDVIHSFAVPSLGVKCDAYPGRLNQVSVFINREGVFYGQCSEICGILHSSMPIVIESVSLEKFLTWLEEQ"}, "B2": {"name": "Cox3 subunit of N. crassa cytochrome c oxidase (complex IV) (protein, UniProt P00422 1-269)", "chain": "MTNLIRSNFQDHPFHLVSPSPWPLNTSVCLLNLTTTGALSMHNFNNIHYLYYIALIGLVSAMFLWFRDIISEGTFLGDHTLAVQRGLNLGIILFIVSEALFFLAIFWAFFHSALTPTVELGAQWPPIGIEPVNPFELPLLNTVILLSSGATITYAHHALIKGEREGALYGSIATILLAIIFTGFQGVEYSVSSFTISDGAFGTCFFFSTGFHGIHVIIGTIFLAVALWRIFAYHLTDNHHVGFEGGILYWHFVDVVWLFLYISVYYWGS"}}, "key": {"[1]": {"target": "T1, Cox2 subunit of N. crassa cytochrome c oxidase (complex IV) (N. crassa (endogenous in mitochondria of strain GR-107)) (UniProt P00411)", "T1 sequence": "B1 chain", "assay": "cryo-EM structure; complex IV purified from N. crassa mitochondria (1% DDM, nickel IMAC without an affinity tag), reconstituted into MSP2N2 lipid nanodiscs (POPC, POPE, cholesterol), Superose 6 gel filtration; single-particle cryo-EM, 300 kV, map at 5.5 Å; subunits assigned by rigid-body fit of the S. cerevisiae model PDB 6hu9; both purified"}, "[2]": {"target": "Cox4 subunit of N. crassa cytochrome c oxidase (complex IV) (N. crassa (endogenous in mitochondria of strain GR-107))", "assay": "cryo-EM structure; complex IV purified from N. crassa mitochondria (1% DDM, nickel IMAC without an affinity tag), reconstituted into MSP2N2 lipid nanodiscs (POPC, POPE, cholesterol), Superose 6 gel filtration; single-particle cryo-EM, 300 kV, map at 5.5 Å; subunits assigned by rigid-body fit of the S. cerevisiae model PDB 6hu9; both purified"}}, "note": "Results are given in words; binding and its absence hold for the method and conditions named. Binding calls can cover weak binding; strength is not graded here."}
{"molecule": "Cox6b subunit of N. crassa cytochrome c oxidase (complex IV)", "values": [{"measurement": "binding", "setting": "[1]", "result": "binds"}]}
{"molecule": "B1", "values": [{"measurement": "binding", "setting": "[2]", "result": "binds"}]}
{"molecule": "B2", "values": [{"measurement": "binding", "setting": "[2]", "result": "binds"}]}
